According to article PMC6012506:
Results are given in words; binding and its absence hold for the method and conditions named. Binding seen in cells or lysates may run through a third protein. Some entries that bind do so weakly or less than the wild type.

Amino acid sequences for entries named in this document (tags omitted).
UniProt Q92508: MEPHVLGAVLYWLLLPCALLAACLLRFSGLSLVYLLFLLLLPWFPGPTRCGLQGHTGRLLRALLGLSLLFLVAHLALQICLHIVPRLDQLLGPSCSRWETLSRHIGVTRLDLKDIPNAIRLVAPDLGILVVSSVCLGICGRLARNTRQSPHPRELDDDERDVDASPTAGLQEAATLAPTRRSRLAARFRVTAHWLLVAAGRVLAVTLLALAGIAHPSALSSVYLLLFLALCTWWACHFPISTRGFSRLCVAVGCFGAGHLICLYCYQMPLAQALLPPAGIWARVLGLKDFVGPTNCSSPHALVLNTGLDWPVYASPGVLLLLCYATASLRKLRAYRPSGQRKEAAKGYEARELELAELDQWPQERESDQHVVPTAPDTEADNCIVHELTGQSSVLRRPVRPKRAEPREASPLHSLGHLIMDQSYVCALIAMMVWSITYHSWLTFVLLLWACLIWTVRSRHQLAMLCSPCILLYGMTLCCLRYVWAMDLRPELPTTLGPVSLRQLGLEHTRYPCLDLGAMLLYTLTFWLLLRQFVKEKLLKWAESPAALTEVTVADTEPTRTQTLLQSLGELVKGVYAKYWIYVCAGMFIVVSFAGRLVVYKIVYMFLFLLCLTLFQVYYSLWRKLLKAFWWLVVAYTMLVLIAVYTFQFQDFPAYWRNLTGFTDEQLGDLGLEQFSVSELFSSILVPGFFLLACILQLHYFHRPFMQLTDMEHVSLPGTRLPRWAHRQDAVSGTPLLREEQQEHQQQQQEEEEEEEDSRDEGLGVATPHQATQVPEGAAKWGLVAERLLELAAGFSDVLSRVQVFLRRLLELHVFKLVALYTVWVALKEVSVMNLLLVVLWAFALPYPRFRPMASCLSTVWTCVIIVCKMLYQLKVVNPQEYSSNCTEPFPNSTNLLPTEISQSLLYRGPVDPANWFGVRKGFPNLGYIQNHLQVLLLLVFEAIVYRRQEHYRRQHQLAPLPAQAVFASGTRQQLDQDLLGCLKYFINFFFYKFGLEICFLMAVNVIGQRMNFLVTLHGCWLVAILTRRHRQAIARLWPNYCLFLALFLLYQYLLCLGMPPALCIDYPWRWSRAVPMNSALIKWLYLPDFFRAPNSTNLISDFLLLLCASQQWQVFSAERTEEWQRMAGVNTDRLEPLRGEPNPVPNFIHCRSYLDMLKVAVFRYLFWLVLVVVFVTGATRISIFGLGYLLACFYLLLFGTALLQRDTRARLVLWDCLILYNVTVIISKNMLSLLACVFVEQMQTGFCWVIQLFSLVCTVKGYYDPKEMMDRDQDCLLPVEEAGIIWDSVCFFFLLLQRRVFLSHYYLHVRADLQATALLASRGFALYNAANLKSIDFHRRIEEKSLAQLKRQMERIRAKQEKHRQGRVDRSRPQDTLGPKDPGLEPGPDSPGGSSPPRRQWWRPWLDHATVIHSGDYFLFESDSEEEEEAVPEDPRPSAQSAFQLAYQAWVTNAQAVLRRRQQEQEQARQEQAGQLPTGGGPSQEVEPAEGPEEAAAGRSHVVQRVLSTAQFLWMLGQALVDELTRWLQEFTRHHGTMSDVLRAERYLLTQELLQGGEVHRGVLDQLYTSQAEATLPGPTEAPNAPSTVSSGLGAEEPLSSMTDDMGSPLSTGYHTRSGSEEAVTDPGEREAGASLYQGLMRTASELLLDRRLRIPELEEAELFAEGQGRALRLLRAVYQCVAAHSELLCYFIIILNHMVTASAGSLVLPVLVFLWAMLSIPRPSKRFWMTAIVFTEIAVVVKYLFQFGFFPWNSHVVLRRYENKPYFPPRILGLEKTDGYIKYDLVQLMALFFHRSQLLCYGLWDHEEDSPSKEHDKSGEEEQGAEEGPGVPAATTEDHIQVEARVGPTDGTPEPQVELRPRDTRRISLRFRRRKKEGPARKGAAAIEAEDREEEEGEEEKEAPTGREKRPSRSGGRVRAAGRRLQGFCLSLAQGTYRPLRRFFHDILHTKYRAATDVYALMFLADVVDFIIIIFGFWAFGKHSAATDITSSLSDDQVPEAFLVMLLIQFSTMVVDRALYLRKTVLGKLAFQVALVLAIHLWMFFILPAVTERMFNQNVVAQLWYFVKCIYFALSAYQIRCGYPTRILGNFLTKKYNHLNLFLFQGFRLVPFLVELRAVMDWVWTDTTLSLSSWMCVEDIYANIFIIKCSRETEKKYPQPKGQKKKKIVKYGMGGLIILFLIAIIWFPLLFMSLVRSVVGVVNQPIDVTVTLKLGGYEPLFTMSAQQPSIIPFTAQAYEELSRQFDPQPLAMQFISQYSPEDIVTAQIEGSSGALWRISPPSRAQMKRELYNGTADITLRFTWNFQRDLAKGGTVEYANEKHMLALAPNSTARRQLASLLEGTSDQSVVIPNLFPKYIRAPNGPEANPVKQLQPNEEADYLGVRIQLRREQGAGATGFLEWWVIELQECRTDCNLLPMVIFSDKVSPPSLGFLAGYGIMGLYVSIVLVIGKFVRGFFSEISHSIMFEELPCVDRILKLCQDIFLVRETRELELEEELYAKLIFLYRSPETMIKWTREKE

Experiments:
[1] = target: Piezo1, endogenous in platelets (not stated (human or mouse platelets)) (UniProt Q92508); test: FRET or BRET; FRET/FLIM in platelets; data not shown
[2] = target: T1, transient receptor potential C6 (TRPC6), endogenous in human platelets (human (endogenous in platelets)) (UniProt Q9Y210); test: FRET or BRET; FRET/FLIM on human platelets stained with antibodies; Alexa Fluor 488 lifetime, excitation 488 nm, double exponential fit; estimates interactions within <=10 nm
T1 sequence: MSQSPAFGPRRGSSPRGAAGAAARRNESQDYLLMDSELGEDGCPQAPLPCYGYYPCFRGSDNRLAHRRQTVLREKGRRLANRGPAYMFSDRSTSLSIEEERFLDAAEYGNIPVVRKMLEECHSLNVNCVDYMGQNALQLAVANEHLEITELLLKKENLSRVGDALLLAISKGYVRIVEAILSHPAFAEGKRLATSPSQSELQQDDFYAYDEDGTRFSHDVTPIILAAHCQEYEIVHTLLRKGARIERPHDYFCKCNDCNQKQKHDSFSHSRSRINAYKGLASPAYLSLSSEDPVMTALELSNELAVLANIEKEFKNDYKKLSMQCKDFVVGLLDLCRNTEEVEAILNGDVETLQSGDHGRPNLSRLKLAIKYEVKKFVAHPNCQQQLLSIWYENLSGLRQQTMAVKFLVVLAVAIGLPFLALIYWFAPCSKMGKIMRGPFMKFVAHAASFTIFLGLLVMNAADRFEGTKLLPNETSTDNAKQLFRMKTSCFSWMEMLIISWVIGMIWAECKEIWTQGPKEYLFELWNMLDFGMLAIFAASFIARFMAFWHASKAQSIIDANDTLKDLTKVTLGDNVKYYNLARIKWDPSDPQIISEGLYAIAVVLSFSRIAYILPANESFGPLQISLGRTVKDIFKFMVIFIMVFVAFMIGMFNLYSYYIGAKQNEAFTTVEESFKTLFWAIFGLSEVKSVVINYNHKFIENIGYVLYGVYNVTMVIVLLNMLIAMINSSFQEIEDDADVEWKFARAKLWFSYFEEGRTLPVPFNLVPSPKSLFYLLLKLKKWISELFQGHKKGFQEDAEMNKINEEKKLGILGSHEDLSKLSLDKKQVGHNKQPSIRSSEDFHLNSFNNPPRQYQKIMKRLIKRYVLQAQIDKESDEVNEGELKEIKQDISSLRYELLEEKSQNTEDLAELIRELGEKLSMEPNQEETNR

B1: aquaporin-1 (AQP1), endogenous in human platelets (protein, UniProt P29972 1-269)
chain: MASEFKKKLFWRAVVAEFLATTLFVFISIGSALGFKYPVGNNQTAVQDNVKVSLAFGLSIATLAQSVGHISGAHLNPAVTLGLLLSCQISIFRALMYIIAQCVGAIVATAILSGITSSLTGNSLGRNDLADGVNSGQGLGIEIIGTLQLVLCVLATTDRRRRDLGGSAPLAIGLSVALGHLLAIDYTGCGINPARSFGSAVITHNFSNHWIFWVGPFIGGALAVLIYDFILAPRSSDLTDRVKVWTSGQVEEYDLDADDINSRVEMKPK
Q: B1 was tested. Which binding [1] did it give?
A: Its binding is “binds”.

Q: And the binding [2]?
A: Its binding is “binds”.
